Experimental findings from paper PMC7198525 are described below.

Amino acid sequences for entries named in this document (tags omitted).
UniProt Q13123: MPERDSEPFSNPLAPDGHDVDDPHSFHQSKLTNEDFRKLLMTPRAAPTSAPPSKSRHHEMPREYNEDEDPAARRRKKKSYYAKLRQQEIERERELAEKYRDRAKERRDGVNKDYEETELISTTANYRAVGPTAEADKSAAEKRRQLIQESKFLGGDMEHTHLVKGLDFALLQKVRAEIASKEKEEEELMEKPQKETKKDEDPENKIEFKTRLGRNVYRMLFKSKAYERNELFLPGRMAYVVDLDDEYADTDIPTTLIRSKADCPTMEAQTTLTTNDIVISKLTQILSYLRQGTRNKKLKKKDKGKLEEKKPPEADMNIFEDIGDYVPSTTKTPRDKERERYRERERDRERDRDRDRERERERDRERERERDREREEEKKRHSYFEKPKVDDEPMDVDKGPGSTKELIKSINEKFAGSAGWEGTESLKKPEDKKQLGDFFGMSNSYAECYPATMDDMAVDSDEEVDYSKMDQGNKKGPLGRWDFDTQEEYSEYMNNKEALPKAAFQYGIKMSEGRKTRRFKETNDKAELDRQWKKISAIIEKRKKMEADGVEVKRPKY

Results are given in words; binding and its absence hold for the method and conditions named. In cells and extracts the contact can be indirect. Some results given as binding are weak or reduced against the parent protein; the word gives no strength. For part of these data: Tags and fused reporters may be left off the sequences shown.

In assay [1] the target is T1, USP47 (endogenous) (human (endogenous in HeLa)) (UniProt Q96K76).
T1 sequence: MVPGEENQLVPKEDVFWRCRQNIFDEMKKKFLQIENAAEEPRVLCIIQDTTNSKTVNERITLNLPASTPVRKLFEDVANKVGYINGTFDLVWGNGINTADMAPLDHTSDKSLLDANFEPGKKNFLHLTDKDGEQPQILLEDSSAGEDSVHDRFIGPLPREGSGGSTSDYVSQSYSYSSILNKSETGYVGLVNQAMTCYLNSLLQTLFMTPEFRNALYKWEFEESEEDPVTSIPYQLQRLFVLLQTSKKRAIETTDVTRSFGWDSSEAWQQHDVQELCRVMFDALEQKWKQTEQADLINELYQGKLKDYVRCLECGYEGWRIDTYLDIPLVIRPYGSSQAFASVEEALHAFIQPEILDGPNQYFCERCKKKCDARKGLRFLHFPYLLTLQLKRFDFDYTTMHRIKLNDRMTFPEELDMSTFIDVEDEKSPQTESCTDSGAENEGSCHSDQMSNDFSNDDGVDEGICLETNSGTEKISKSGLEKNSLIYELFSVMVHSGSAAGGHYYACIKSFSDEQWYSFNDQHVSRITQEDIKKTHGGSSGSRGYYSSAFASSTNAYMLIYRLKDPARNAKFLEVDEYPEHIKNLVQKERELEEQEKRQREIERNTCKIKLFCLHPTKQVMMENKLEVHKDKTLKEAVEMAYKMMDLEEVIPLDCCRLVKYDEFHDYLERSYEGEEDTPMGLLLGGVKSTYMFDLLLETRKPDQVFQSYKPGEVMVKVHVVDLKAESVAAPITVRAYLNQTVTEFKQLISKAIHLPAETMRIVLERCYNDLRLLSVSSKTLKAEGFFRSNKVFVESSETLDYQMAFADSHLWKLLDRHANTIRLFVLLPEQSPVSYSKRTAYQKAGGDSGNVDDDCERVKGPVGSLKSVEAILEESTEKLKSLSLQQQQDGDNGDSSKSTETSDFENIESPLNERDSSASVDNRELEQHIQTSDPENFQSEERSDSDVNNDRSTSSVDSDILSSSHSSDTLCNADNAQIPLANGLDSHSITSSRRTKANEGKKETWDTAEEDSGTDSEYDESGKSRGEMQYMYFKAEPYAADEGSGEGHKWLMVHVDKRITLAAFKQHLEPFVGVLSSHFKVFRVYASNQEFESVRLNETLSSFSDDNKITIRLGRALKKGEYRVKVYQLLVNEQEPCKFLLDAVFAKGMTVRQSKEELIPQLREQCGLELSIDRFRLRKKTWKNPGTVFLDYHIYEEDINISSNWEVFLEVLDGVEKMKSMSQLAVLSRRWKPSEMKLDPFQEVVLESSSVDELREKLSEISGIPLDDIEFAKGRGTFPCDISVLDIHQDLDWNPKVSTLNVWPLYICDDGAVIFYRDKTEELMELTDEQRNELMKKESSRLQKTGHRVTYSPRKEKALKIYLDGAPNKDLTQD
Kind of assay: co-IP; endogenous proteins; lysis buffer 50 mM Tris-HCl pH 8.0, 150 mM NaCl, 1 mM EDTA, 1% NP-40; lysate with 3 ug of antibody overnight, protein G agarose beads 2 h at 4 C, four washes; immunoblot.

The target of another assay is T2, Flag-USP47 (human) (UniProt Q96K76).
T2 sequence: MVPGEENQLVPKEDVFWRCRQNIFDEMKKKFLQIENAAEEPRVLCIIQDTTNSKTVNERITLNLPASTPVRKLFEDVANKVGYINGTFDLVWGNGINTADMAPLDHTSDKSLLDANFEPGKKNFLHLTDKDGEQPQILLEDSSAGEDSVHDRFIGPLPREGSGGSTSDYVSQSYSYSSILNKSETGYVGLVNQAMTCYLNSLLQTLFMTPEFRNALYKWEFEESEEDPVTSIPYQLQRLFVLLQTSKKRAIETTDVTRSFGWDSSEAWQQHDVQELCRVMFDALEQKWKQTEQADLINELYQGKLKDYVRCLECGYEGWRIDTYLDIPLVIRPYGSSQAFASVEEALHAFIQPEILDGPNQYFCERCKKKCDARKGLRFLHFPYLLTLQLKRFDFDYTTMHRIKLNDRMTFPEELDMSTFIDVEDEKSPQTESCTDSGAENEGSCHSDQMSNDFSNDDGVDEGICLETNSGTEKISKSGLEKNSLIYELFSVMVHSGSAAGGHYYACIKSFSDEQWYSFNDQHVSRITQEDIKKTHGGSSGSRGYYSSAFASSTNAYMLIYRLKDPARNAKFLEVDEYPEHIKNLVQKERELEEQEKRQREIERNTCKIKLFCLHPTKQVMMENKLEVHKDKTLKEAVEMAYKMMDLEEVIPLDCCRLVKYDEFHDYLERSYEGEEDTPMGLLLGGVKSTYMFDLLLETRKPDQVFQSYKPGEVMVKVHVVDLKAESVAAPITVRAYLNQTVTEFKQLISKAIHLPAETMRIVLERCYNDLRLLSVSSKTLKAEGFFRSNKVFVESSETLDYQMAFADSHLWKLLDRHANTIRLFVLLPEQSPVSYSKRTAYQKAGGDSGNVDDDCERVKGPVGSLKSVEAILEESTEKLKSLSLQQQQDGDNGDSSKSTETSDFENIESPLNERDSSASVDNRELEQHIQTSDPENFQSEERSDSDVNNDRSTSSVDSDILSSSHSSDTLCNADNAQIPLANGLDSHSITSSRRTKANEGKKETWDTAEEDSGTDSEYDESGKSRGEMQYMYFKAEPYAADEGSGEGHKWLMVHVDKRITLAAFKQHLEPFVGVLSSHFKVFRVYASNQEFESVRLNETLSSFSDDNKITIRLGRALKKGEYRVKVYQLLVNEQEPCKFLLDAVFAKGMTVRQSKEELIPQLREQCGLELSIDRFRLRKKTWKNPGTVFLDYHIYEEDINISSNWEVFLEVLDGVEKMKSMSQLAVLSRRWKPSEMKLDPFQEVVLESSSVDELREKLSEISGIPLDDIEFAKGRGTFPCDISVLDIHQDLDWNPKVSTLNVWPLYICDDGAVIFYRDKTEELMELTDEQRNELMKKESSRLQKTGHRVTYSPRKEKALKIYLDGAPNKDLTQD
The assay can be described thus: co-IP; HEK-293T cells transfected with HA-IK or/and Flag-USP47; immunoprecipitated with an anti-HA or anti-Flag antibody; immunoblot for HA and FLAG.

Assay [2] has as its target HA-IK (not stated (human or mouse cDNA cloned)) (UniProt Q13123). The description is as above.

As for “IK (endogenous) (from UniProt Q13123 1-557)”, the binding entry in assay [1] is listed as “binds”.

With HA-IK (from UniProt Q13123 1-557), in the assay with Flag-USP47 (human), the binding result is given as “binds”.

B1: Flag-USP47 (enzyme, UniProt Q96K76 1-1375)
chain: MVPGEENQLVPKEDVFWRCRQNIFDEMKKKFLQIENAAEEPRVLCIIQDTTNSKTVNERITLNLPASTPVRKLFEDVANKVGYINGTFDLVWGNGINTADMAPLDHTSDKSLLDANFEPGKKNFLHLTDKDGEQPQILLEDSSAGEDSVHDRFIGPLPREGSGGSTSDYVSQSYSYSSILNKSETGYVGLVNQAMTCYLNSLLQTLFMTPEFRNALYKWEFEESEEDPVTSIPYQLQRLFVLLQTSKKRAIETTDVTRSFGWDSSEAWQQHDVQELCRVMFDALEQKWKQTEQADLINELYQGKLKDYVRCLECGYEGWRIDTYLDIPLVIRPYGSSQAFASVEEALHAFIQPEILDGPNQYFCERCKKKCDARKGLRFLHFPYLLTLQLKRFDFDYTTMHRIKLNDRMTFPEELDMSTFIDVEDEKSPQTESCTDSGAENEGSCHSDQMSNDFSNDDGVDEGICLETNSGTEKISKSGLEKNSLIYELFSVMVHSGSAAGGHYYACIKSFSDEQWYSFNDQHVSRITQEDIKKTHGGSSGSRGYYSSAFASSTNAYMLIYRLKDPARNAKFLEVDEYPEHIKNLVQKERELEEQEKRQREIERNTCKIKLFCLHPTKQVMMENKLEVHKDKTLKEAVEMAYKMMDLEEVIPLDCCRLVKYDEFHDYLERSYEGEEDTPMGLLLGGVKSTYMFDLLLETRKPDQVFQSYKPGEVMVKVHVVDLKAESVAAPITVRAYLNQTVTEFKQLISKAIHLPAETMRIVLERCYNDLRLLSVSSKTLKAEGFFRSNKVFVESSETLDYQMAFADSHLWKLLDRHANTIRLFVLLPEQSPVSYSKRTAYQKAGGDSGNVDDDCERVKGPVGSLKSVEAILEESTEKLKSLSLQQQQDGDNGDSSKSTETSDFENIESPLNERDSSASVDNRELEQHIQTSDPENFQSEERSDSDVNNDRSTSSVDSDILSSSHSSDTLCNADNAQIPLANGLDSHSITSSRRTKANEGKKETWDTAEEDSGTDSEYDESGKSRGEMQYMYFKAEPYAADEGSGEGHKWLMVHVDKRITLAAFKQHLEPFVGVLSSHFKVFRVYASNQEFESVRLNETLSSFSDDNKITIRLGRALKKGEYRVKVYQLLVNEQEPCKFLLDAVFAKGMTVRQSKEELIPQLREQCGLELSIDRFRLRKKTWKNPGTVFLDYHIYEEDINISSNWEVFLEVLDGVEKMKSMSQLAVLSRRWKPSEMKLDPFQEVVLESSSVDELREKLSEISGIPLDDIEFAKGRGTFPCDISVLDIHQDLDWNPKVSTLNVWPLYICDDGAVIFYRDKTEELMELTDEQRNELMKKESSRLQKTGHRVTYSPRKEKALKIYLDGAPNKDLTQD
With B1, the binding entry in assay [2] was “binds”.
